The chains are these.
B1: StREM1.3 (Solanum tuberosum REMORIN from group 1b, homolog 3) (protein, UniProt P93788 1-198)
chain: MAELEAKKVEIVDPAPPAPGPVEAPKEVVADEKAIVAPALPPPAEEKEKPDDSKALVVVETKAPEPADEKKEGSIDRDAVLARVATEKRVSLIKAWEESEKSKAENKAQKKVSAIGAWENSKKANLEAELKKMEEQLEKKKAEYTEKMKNKIALLHKEAEEKRAMIEAKRGEDLLKAEELAAKYRATGTAPKKILGIF
B2: AtREM1.2 (Arabidopsis thaliana group 1b REMORIN, At3g61260) (protein, UniProt Q9M2D8 1-212)
chain: MAEEQKIALESESPAKVTTPAPADTPAPAPAEIPAPAPAPTPADVTKDVAEEKIQNPPPEQIFDDSKALTVVEKPVEEPAPAKPASASLDRDVKLADLSKEKRLSFVRAWEESEKSKAENKAEKKIADVHAWENSKKAAVEAQLKKIEEQLEKKKAEYAERMKNKVAAIHKEAEERRAMIEAKRGEDVLKAEETAAKYRATGIVPKATCGCF
B3: AtREM1.3 (Arabidopsis thaliana group 1b REMORIN, At2g45820) (protein, UniProt O80837 1-190)
chain: MAEEQKTSKVDVESPAVLAPAKEPTPAPVEVADEKIHNPPPVESKALAVVEKPIEEHTPKKASSGSADRDVILADLEKEKKTSFIKAWEESEKSKAENRAQKKISDVHAWENSKKAAVEAQLRKIEEKLEKKKAQYGEKMKNKVAAIHKLAEEKRAMVEAKKGEELLKAEEMGAKYRATGVVPKATCGCF
B4: REM1.3^DDD (phosphomimetic mutant S74/T86/S91DDD of StREM1.3) (protein, UniProt P93788 1-198)
chain: MAELEAKKVEIVDPAPPAPGPVEAPKEVVADEKAIVAPALPPPAEEKEKPDDSKALVVVETKAPEPADEKKEGDIDRDAVLARVADEKRVDLIKAWEESEKSKAENKAQKKVSAIGAWENSKKANLEAELKKMEEQLEKKKAEYTEKMKNKIALLHKEAEEKRAMIEAKRGEDLLKAEELAAKYRATGTAPKKILGIF
B5: REM1.3^AAA (phosphodead mutant S74/T86/S91AAA of StREM1.3) (protein, UniProt P93788 1-198)
chain: MAELEAKKVEIVDPAPPAPGPVEAPKEVVADEKAIVAPALPPPAEEKEKPDDSKALVVVETKAPEPADEKKEGAIDRDAVLARVAAEKRVALIKAWEESEKSKAENKAQKKVSAIGAWENSKKANLEAELKKMEEQLEKKKAEYTEKMKNKIALLHKEAEEKRAMIEAKRGEDLLKAEELAAKYRATGTAPKKILGIF

No constants are given. Whether binding was seen depends on the method and setting. Binding seen in cells or lysates may run through a third protein. Some results given as binding are weak or reduced against the parent protein; the word gives no strength.

The target in one assay is StREM1.3 (Solanum tuberosum REMORIN from group 1b, homolog 3) (Solanum tuberosum) (UniProt P93788). Briefly: split reporter; BiFC in planta: split YFP fusions (pSITE-BiFC vectors) transiently expressed in N. benthamiana epidermal cells; confocal images (Zeiss LSM 880) at 2 DAI; mean fluorescence intensity at the cell boundary by ImageJ.
B1: the binding result was “binds”.

A further assay has as its target AtCPK3CA (constitutive active Arabidopsis thaliana CALCIUM-… PROTEIN KINASE 3, residues 1-342) (Arabidopsis thaliana) (UniProt Q42479). The assay is described as above.
In the case of B2, the binding entry is listed as “binds”.

For the molecule B3, the binding result was “binds”.

Turning to B1, the binding entry is reported as “binds”.

As for B4, the binding result is listed as “binds”.

As to B5, the binding entry was “binds”.

The record behind these values is publication PMC6258466.
